# Data source: PubChem BioAssay AID602196 (INSERM, 2012)
# Purpose: 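Modifiers of cisplatin sensitivity in A549 cells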
# Cells: human A549 lung cancer cells
# Reagents: siRNA pair against human genes
# Timing: 48 h transfection before cisplatin; time from cisplatin to read-out not stated
# Conditions: cisplatin at a dose killing half of control-siRNA cells; exact dose and duration not given
# Measurement: 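Shift in cisplatin death relative to control siRNA, from -50 (all cells die) to +50 (no cells die); siRNAs harmful on their own scored 0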
# Scale: two-siRNA summed score (-2 to +2): higher = both siRNAs protect from cisplatin killing; -2 means both sensitise; mean protection from cisplatin (shift in death) and protection from cisplatin (shift in death), siRNA C and protection from cisplatin (shift in death), siRNA D: higher = protection from cisplatin killing
# Active means: 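Each siRNA scores 0 if harmful alone by LDH or WST-1, otherwise +1 if it reduces and -1 if it increases cisplatin killing; a gene is active when both siRNAs agree (sum +2 or -2)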
# Meaning of the calls: active = both siRNAs shift cisplatin killing the same way; inactive = no consistent shift, or siRNA harmful alone
# This is an unselected part of about 23,000 reagents. 455 of all reagents (2%) were called active. 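Active includes both protection and sensitisation; some change values fall well beyond the stated -50 to +50 range.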 The numbers tell different reagents against one gene apart. The record does not give: the amount of reagent.
Target gene,reagent,two-siRNA summed score (-2 to +2),mean protection from cisplatin (shift in death) (%),"protection from cisplatin (shift in death), siRNA C (%)","protection from cisplatin (shift in death), siRNA D (%)",Outcome
LOC340228,1,0,4.8,4.7,4.9,inactive
BTG3,1,-1,-1.9,8.5,-12.4,inactive
FAM24A,1,1,20.1,29.2,11.1,inactive
AHCY,1,0,-8.4,-14.4,-2.3,inactive
PSMD4,1,0,25.1,30.7,19.5,inactive
NOP53,1,0,5.6,14.9,-3.8,inactive
TSLIG1,1,0,0.4,4.8,-3.9,inactive
TFDP1P2,1,0,9.9,14.7,5,inactive
ATP2C1,1,0,12.5,6.8,18.2,inactive
LOC387983,1,0,10.5,12.9,8.1,inactive
EXOC8,1,0,4.8,-2,11.6,inactive
SPRY4,1,0,1.9,1.6,2.1,inactive
GSDMB,1,0,9.5,14,5,inactive
MTRF1L,1,0,16.9,13,20.7,inactive
TUBB1,1,0,1.2,2.4,-0.1,inactive
PRSS38,1,1,2.1,18.4,-14.3,inactive
SCG2,1,1,10,10.7,9.2,inactive
LOC441653,1,0,6.5,6.1,6.8,inactive
RAB10,1,0,-0.5,0.9,-1.8,inactive
NKX6-2,1,0,-3.3,8,-14.7,inactive
FAM169A-AS1,1,1,7.6,17.2,-1.9,inactive
CD300A,1,1,8.6,-2.3,19.5,inactive
POLR3K,1,0,1,-2.6,4.7,inactive
FAM110D,1,0,9.6,-14.1,33.3,inactive
INPP4B,1,0,-8.1,-4.6,-11.7,inactive
PLRG1,1,1,6.3,-3.1,15.7,inactive
LOC401097,1,0,-8.4,-10.9,-6,inactive
ZNF526,1,0,0,10.2,-10.2,inactive
RND1,1,0,11.3,14.8,7.8,inactive
DHX33,1,0,2.4,5.7,-0.9,inactive
CCDC149,1,1,12,14.5,9.5,inactive
SACK1H,1,0,15.9,18.7,13.1,inactive
MYADML,1,0,-16.3,-12.2,-20.3,inactive
BRD2,1,-1,-6.1,-17.6,5.4,inactive
ATOH8,1,1,11,14.4,7.5,inactive
C3orf62,1,1,30.1,37.2,23,inactive
ACTL6A,1,1,0.3,7.5,-7,inactive
LIN9,1,0,-4.4,-2.2,-6.6,inactive
PCDHB7,1,0,-2.5,7.9,-12.8,inactive
SUN3,1,0,3.7,8.8,-1.3,inactive
KCNH1,1,0,-2.8,-7.2,1.6,inactive

Already shown: 6 of the entries above.
Target gene,reagent,two-siRNA summed score (-2 to +2),mean protection from cisplatin (shift in death) (%),"protection from cisplatin (shift in death), siRNA C (%)","protection from cisplatin (shift in death), siRNA D (%)",Outcome
PRSS38,1,1,2.1,18.4,-14.3,inactive
SCG2,1,1,10,10.7,9.2,inactive
LOC441653,1,0,6.5,6.1,6.8,inactive
RAB10,1,0,-0.5,0.9,-1.8,inactive
NKX6-2,1,0,-3.3,8,-14.7,inactive
FAM169A-AS1,1,1,7.6,17.2,-1.9,inactive

Continued:
Target gene,reagent,two-siRNA summed score (-2 to +2),mean protection from cisplatin (shift in death) (%),"protection from cisplatin (shift in death), siRNA C (%)","protection from cisplatin (shift in death), siRNA D (%)",Outcome
AATBC,1,0,-2,-20.3,16.2,inactive
NHLH1,1,0,-14.4,-18.9,-9.9,inactive
SUMF1,1,1,11.3,3.6,19,inactive
GOLGA4,1,-1,-0.5,9.5,-10.5,inactive
MAGEC2,1,0,-2.8,4.7,-10.3,inactive
PADI1,1,1,2.4,-13.1,17.9,inactive
PANK2,1,0,-4.8,-5.6,-4.1,inactive
LINC01020,1,-1,-4.5,7.9,-16.8,inactive
LOC439978,1,0,9.5,5.4,13.6,inactive
LOC255330,1,0,8,12.3,3.8,inactive
PEX6,1,0,9.4,-7.5,26.3,inactive
CD46,1,0,17.3,20.5,14.2,inactive
SPDYC,1,0,-1.8,-15.6,12,inactive
CYP27A1,1,1,18.1,25.6,10.5,inactive
LY6G5B,1,0,2.1,4.8,-0.6,inactive
TMEM63A,1,0,3,6.4,-0.4,inactive
CDV3,1,0,-3.4,3,-9.7,inactive
CD37,1,1,8.9,4.2,13.6,inactive
A4GALT,1,0,6.3,30.1,-17.5,inactive
SLC6A8,1,1,9.8,20.7,-1.2,inactive
MMADHC,1,0,5.9,14.4,-2.6,inactive
PCYOX1,1,1,5.8,-7.5,19,inactive
VMP1,1,-1,-7.4,0.3,-15.2,inactive
AKAP13,1,-1,0.9,-9,10.9,inactive
GDF10,1,0,-0.5,-5.7,4.6,inactive
MSMB,1,0,5.1,14.5,-4.2,inactive
CDCA2,1,0,7.7,4.3,11.2,inactive
HARS2,1,0,6.1,9.3,2.9,inactive
GABRB2,1,1,16.1,-5.7,37.9,inactive
TRPM4,1,0,0.7,9.3,-7.9,inactive
LOC387981,1,0,0.2,-8,8.4,inactive
TET2,1,0,5.5,6.1,4.9,inactive
TET2,2,0,5.7,1.4,10.1,inactive
